# Measured values: article PMC6696373 (Molecules, 2019)
# Strings that start with PEPTIDE1 are HELM notation: dots part the residues, brackets hold end groups and non-standard residues.
# Test: peptide made by a vendor
# Settings: whole synthesis
substance,measurement,value
PEPTIDE1{W.G.A.P.S.L}$$$$V2.0,purity (crude or final not stated),90% purity
